Values of other authors, collected in US9302989B2 (priority 2010, dated 2016).

Assays:
[1] = system: activated T cells; settings: cited from earlier work
[2] = rat, in vivo; cited from earlier work
[3] = system: vascular smooth muscle cell (VSMC); settings: in vivo; cited from earlier work

| SMILES | apoptosis of activated T cells [1] | proliferation of activated T cells [1] | blood pressure, glucose and lipid metabolism, insulin signalling, endothelial dysfunction [2] | intimal thickening and vascular smooth muscle cell (VSMC) proliferation [3] |
| --- | --- | --- | --- | --- |
| O=C(/C=C/c1cccnc1)NCCCCC1CCN(C(=O)c2ccccc2)CC1 [FK866] | induce apoptosis | selectively block proliferation | – | – |
| O=S(=O)(c1cccc2cnccc12)N1CCCNCC1 [fasudil] | – | – | reduced blood pressure, corrected glucose and lipid metabolism, improved insulin signalling and endothelial dysfunction | significantly suppressed |
